Values quoted from earlier work, collected in patent publication US20190062383A1 (priority 2013, published 2019).

System: Kv1.1, Kv1.2, Kv1.4, Kv1.5, and Kv1.6
Conditions: cited from earlier work

CC[C@H](C)[C@@H]1NC(=O)[C@@H]2CSSC[C@@H]3NC(=O)[C@H](CCCCN)NC(=O)CNC(=O)[C@H](CC(N)=O)NC(=O)[C@H](CCSC)NC(=O)[C@H](CSSC[C@H](NC(=O)[C@H](CCCCN)NC(=O)[C@@H](NC(=O)[C@H](CC(=O)O)NC(=O)[C@@H](NC(=O)[C@@H]4CCCN4C(=O)[C@@H](NC(=O)CN)C(C)C)[C@@H](C)O)C(C)C)C(=O)N[C@@H](CCCNC(=N)N)C(=O)NCC(=O)N[C@@H](CO)C(=O)N4CCC[C@H]4C(=O)N[C@@H](CCC(N)=O)C(=O)N2)NC(=O)[C@H](CCCCN)NC(=O)CNC(=O)[C@H](Cc2ccccc2)NC(=O)[C@H](CCCNC(=N)N)NC(=O)[C@H](CCSC)NC(=O)CNC(=O)[C@H](C)NC(=O)[C@H](CC(=O)O)NC(=O)[C@H](CCCCN)NC(=O)[C@H](CSSC[C@@H](C(=O)N[C@H](C(=O)N2CCC[C@H]2C(=O)N[C@@H](CCCCN)C(=O)O)[C@@H](C)O)NC(=O)[C@H](Cc2c[nH]cn2)NC3=O)NC(=O)[C@@H]2CCCN2C(=O)[C@H](CCC(N)=O)NC1=O [OdK2]
activity on other Kv1.x subtypes tested: no activity
